Test results taken from paper PMC1525203.
Results are given in words; binding and its absence hold for the method and conditions named. In cells and extracts the contact can be indirect. Some entries that bind do so weakly or less than the wild type.

Target: T1, Epstein-Barr virus nuclear antigen 5 (Epstein-Barr virus (endogenous in EBV-infected C666-1 and B95-8 cells)) (UniProt Q8AZK7)
T1 sequence: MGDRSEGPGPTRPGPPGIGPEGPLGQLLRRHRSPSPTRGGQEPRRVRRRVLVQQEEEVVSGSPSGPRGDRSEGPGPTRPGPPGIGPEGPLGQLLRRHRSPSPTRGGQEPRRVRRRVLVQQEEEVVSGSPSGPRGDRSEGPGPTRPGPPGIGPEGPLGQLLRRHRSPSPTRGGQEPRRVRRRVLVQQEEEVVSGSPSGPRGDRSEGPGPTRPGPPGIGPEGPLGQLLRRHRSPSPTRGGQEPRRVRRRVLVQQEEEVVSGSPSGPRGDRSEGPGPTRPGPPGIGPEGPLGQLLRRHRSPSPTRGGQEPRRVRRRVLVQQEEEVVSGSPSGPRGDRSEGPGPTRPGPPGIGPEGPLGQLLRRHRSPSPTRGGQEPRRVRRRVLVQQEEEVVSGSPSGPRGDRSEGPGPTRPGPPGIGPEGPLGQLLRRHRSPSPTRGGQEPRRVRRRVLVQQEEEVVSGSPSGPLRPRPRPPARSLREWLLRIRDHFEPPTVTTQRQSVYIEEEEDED
Test: co-IP; lysates of C666-1 and B95-8 cells (20 mM HEPES pH 7.9, 100 mM NaCl, 1% NP-40, 0.5 mM EDTA), Catch and Release v2.0 spin columns, 4°C overnight; precipitated with anti-EBNA5 JF186 and blotted with p63 4A4, and the reverse; NP69 cells as negative control

B1: p63 protein (protein, UniProt Q9H3D4 1-680)
chain: MNFETSRCATLQYCPDPYIQRFVETPAHFSWKESYYRSTMSQSTQTNEFLSPEVFQHIWDFLEQPICSVQPIDLNFVDEPSEDGATNKIEISMDCIRMQDSDLSDPMWPQYTNLGLLNSMDQQIQNGSSSTSPYNTDHAQNSVTAPSPYAQPSSTFDALSPSPAIPSNTDYPGPHSFDVSFQQSSTAKSATWTYSTELKKLYCQIAKTCPIQIKVMTPPPQGAVIRAMPVYKKAEHVTEVVKRCPNHELSREFNEGQIAPPSHLIRVEGNSHAQYVEDPITGRQSVLVPYEPPQVGTEFTTVLYNFMCNSSCVGGMNRRPILIIVTLETRDGQVLGRRCFEARICACPGRDRKADEDSIRKQQVSDSTKNGDGTKRPFRQNTHGIQMTSIKKRRSPDDELLYLPVRGRETYEMLLKIKESLELMQYLPQHTIETYRQQQQQQHQHLLQKQTSIQSPSSYGNSSPPLNKMNSMNKLPSVSQLINPQQRNALTPTTIPDGMGANIPMMGTHMPMAGDMNGLSPTQALPPPLSMPSTSHCTPPPPYPTDCSIVSFLARLGCSSCLDYFTTQGLTTIYQIEHYSMDDLASLKIPEQFRHAIWKGILDHRQLHEFSSPSHLLRTPSSASTVSVGSSETRGERVIDAVRFTLRQTISFPPRDEWNDFNFDMDARRNKQQRIKEEGE
binding: binds
